Laboratory results taken from patent EP3235815A1, “AGENTS AGAINST PARASITIC HELMINTHS” (PHILIPPS-UNIVERSITÄT MARBURG, priority 2016, dated 2017).
At least one structure is not confirmed: it was looked up by name or label, or the drawing left a doubt.

Tested on: Schistosoma mansoni (Liberianischer Stamm)
Assay: In vitro test on adult Schistosoma mansoni couples (10 couples; pairing stability, attachment, egg counts at 24/48/72 h, deformed eggs, tegument damage, gut dilatation, death)
Settings: phenotypic changes compared with those caused by the compounds of the invention

Structure (SMILES): CCN(CC)C(=S)SSC(=S)N(CC)CC [Disulfiram]
- Veränderungen bei behandelten Schistosomen: vergleichbare, teils identische Veränderungen
